Laboratory results as given in paper PMC5811045.
Like-named read-outs stand apart in the source and are kept apart here. No constants are given. Whether binding was seen depends on the method and setting. Some results given as binding are weak or reduced against the parent protein; the word gives no strength.

Sequences of proteins named here, by UniProt entry; tags and fusion partners are left off.
UniProt P15806: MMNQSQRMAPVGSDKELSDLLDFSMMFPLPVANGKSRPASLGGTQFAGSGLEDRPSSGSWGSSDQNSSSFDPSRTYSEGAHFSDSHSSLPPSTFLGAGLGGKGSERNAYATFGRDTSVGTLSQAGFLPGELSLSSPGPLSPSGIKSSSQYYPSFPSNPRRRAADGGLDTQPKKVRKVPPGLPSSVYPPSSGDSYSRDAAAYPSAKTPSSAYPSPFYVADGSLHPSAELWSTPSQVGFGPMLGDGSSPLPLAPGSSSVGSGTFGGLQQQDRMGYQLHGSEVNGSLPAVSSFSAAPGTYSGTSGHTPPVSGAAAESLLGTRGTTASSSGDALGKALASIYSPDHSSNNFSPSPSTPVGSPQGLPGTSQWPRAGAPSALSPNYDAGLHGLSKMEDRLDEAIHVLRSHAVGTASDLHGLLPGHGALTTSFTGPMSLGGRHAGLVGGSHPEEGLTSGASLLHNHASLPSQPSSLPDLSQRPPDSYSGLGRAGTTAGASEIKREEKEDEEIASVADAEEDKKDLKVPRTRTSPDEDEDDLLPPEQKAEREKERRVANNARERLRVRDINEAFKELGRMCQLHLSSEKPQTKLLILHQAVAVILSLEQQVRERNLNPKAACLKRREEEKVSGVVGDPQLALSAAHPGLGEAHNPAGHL

Key:
E12 [1] = target: E12 (UniProt P15806); assay: native gel or EMSA; programmed wheat germ extracts mixed as indicated, 15 min at room temperature in 100 mM Hepes pH 7.6, 25 mM KCl, 1.5 mM MgCl2, 0.2 mM EDTA, 2.5% glycerol, 100 ng poly dIdC; then 15 min with 32P-labelled mouse Hes5(e1) E-box probe; 4.5% polyacrylamide gel, autoradiography; protein complexes are seen only as bound to the DNA probe
E12 [2] = target: E12 (UniProt P15806); assay: as above; remark: listed apart in the source

binding (E12 [1]) | binding (E12 [2]) | Molecule
binds |  | E12 (from UniProt P15806 1-651)
 | binds | Id1 (protein, UniProt P20067 1-168) MKVASGSAAAAAGPSCSLKAGRTAGEVVLGLSEQSVAISRCAGTRLPALLDEQQVNVLLYDMNGCYSRLKELVPTLPQNRKVSKVEILQHVIDYIRDLQLELNSESEVGTTGGRGLPVRAPLSTLNGEISALAAEVRSESEYYIILQWETEATGGGCPPSLLFRRIAI
